Results published in the supplement of paper PMC10849652.
The list shows a part of the results.

By UniProt entry, the sequences of proteins in these tests, tags left out. Where a name states a change or a piece, a line headed by the entry shows the natural chain unless it says otherwise.
UniProt Q96EK5: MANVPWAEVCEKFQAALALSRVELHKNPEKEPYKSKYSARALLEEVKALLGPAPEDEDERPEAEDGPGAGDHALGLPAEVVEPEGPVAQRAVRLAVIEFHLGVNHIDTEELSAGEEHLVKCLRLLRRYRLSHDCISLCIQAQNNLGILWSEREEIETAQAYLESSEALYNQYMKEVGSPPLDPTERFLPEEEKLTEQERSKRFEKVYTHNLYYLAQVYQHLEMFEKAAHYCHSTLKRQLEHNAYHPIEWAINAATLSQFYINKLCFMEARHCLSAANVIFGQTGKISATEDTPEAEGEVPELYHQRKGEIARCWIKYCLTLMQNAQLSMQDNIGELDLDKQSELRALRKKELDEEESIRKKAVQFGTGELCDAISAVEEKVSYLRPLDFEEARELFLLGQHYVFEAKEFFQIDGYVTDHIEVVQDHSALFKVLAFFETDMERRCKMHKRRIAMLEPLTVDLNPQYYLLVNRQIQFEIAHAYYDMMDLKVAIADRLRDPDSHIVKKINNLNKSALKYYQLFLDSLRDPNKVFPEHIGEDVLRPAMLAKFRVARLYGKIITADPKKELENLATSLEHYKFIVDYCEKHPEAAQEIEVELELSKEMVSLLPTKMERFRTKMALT
UniProt Q15058: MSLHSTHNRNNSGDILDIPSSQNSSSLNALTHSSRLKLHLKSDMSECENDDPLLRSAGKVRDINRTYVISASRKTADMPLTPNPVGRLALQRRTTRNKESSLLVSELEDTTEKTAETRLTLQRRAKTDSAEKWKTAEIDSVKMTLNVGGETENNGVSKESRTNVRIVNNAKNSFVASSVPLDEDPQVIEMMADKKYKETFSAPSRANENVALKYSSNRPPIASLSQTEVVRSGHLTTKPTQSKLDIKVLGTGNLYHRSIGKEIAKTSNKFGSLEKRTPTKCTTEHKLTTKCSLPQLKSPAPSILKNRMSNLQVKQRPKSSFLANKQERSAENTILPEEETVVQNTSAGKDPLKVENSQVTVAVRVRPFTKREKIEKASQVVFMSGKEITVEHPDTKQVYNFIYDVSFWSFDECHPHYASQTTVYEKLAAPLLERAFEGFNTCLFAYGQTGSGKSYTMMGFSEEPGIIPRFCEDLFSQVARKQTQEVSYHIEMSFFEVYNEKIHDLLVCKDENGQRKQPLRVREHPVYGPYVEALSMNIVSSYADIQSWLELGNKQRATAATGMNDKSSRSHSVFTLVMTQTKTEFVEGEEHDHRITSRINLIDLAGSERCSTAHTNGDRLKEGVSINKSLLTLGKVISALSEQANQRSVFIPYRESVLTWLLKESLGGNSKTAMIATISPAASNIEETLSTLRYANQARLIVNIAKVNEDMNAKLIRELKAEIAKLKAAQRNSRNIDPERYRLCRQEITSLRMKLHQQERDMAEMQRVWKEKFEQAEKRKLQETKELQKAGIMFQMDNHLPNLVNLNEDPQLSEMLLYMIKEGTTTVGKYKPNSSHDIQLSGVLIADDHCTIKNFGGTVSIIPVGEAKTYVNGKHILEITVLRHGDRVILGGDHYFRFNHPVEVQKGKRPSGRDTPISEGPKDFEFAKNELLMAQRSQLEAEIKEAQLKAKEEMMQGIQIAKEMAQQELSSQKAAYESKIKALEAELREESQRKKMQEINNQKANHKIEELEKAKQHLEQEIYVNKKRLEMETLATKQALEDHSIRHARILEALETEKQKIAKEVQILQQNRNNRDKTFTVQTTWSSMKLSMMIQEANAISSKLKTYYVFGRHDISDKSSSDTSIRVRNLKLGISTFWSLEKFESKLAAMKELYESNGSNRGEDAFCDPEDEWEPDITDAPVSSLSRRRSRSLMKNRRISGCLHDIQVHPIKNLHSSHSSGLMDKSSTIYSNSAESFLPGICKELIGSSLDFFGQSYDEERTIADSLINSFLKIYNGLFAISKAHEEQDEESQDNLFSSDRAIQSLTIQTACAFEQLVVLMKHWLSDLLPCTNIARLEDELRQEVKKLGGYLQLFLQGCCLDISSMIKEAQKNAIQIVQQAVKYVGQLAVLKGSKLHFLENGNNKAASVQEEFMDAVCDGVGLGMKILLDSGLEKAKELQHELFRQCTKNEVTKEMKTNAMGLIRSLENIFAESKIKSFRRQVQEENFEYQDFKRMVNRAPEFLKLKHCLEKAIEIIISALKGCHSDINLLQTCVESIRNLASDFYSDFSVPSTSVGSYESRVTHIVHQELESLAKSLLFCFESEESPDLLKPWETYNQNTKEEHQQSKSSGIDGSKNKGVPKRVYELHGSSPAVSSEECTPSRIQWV
UniProt Q96SI1: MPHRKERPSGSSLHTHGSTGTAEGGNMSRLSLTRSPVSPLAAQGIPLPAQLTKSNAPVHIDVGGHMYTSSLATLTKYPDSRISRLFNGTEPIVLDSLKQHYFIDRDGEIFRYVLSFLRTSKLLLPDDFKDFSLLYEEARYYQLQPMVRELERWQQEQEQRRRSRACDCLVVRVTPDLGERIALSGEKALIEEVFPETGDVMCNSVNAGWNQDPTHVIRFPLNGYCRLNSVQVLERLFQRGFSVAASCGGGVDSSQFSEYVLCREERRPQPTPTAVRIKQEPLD
UniProt O15554, whole entry, looked up: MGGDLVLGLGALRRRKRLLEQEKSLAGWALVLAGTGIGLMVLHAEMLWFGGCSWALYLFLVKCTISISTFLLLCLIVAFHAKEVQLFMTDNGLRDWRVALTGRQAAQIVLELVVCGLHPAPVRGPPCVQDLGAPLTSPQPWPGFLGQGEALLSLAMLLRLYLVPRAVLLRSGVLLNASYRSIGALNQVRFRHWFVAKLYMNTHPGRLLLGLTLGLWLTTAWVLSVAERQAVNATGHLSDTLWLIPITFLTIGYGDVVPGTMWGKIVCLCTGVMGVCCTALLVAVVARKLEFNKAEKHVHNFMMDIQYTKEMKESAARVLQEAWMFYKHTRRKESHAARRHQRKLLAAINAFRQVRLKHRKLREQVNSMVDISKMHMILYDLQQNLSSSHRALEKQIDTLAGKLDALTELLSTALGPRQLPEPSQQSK
UniProt Q9NXV2: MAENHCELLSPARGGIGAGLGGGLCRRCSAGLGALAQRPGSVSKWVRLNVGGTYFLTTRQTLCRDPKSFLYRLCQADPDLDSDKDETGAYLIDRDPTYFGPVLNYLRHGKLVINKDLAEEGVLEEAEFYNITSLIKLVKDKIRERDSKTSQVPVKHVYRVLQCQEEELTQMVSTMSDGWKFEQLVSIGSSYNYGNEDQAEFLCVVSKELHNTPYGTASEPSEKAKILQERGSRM
UniProt Q8NC54: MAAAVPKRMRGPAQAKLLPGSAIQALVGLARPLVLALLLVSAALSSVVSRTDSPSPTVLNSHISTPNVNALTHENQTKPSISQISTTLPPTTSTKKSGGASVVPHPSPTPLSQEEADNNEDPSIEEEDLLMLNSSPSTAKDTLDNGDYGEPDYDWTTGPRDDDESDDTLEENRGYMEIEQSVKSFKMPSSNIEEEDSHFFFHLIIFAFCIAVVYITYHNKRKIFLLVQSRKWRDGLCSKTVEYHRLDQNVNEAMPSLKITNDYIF
UniProt Q9Y597: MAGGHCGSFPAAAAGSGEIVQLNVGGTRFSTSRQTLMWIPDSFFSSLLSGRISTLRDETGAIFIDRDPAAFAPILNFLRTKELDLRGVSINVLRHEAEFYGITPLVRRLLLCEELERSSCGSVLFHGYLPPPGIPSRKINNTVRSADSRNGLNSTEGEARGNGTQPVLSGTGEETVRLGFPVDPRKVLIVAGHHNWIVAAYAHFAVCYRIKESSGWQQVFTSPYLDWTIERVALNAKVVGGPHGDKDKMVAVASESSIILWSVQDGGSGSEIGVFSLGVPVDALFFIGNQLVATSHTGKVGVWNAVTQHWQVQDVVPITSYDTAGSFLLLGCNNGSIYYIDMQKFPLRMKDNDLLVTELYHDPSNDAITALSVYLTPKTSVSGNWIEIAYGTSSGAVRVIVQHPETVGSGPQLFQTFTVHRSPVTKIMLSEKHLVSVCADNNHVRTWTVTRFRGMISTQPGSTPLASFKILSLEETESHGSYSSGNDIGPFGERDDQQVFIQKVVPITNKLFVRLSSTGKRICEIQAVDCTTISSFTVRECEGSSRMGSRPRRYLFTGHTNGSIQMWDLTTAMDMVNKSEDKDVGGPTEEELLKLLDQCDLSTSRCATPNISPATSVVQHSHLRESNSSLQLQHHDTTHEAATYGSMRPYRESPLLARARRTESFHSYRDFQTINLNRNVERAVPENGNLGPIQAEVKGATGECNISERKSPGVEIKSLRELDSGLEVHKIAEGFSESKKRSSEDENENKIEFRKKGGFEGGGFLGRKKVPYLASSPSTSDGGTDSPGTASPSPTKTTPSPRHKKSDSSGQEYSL
UniProt Q9H1H9: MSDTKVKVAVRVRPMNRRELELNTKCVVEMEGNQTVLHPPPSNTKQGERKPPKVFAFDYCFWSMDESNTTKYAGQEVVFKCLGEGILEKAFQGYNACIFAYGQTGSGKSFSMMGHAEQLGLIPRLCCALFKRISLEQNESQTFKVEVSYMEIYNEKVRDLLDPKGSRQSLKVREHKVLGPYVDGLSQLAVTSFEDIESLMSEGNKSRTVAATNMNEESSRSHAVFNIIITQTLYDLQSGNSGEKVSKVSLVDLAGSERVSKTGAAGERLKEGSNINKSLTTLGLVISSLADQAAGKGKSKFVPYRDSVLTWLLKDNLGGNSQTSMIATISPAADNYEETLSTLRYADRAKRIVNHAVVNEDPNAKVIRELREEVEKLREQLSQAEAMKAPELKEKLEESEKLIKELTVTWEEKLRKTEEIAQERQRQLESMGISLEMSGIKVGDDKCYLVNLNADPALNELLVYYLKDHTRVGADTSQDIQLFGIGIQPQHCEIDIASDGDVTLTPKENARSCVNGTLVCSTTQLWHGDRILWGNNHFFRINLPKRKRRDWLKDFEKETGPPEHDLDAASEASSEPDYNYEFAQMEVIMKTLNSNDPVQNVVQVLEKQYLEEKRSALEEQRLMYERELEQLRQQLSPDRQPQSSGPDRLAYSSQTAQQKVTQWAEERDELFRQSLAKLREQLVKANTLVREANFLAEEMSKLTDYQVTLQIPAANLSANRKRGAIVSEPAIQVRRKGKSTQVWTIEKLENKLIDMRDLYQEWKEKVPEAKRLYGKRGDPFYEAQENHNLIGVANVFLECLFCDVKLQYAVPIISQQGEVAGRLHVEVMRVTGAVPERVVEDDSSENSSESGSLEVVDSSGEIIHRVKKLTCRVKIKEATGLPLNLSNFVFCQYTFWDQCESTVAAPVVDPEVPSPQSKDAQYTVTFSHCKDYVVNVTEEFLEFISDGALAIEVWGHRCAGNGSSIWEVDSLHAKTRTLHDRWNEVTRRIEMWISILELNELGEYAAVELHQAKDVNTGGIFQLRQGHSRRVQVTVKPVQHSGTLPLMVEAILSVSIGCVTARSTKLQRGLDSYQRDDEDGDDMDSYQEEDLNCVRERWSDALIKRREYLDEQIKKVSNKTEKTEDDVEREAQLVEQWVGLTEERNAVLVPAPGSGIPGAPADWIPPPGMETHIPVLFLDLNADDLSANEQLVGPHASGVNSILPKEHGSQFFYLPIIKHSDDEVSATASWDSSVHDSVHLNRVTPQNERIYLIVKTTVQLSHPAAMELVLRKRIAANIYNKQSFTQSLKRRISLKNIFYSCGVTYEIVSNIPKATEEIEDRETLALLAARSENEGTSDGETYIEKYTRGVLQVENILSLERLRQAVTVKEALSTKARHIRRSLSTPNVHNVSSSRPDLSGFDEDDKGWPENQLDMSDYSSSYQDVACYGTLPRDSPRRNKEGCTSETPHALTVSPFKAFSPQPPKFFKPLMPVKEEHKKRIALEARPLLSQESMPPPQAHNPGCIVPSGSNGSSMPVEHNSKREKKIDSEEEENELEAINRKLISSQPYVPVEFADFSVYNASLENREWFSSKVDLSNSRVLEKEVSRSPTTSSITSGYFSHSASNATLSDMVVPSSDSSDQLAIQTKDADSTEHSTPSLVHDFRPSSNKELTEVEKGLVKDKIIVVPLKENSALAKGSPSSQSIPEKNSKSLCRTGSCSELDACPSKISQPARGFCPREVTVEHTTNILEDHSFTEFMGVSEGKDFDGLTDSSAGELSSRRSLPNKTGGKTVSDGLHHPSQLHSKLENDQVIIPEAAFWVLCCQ
UniProt P17535: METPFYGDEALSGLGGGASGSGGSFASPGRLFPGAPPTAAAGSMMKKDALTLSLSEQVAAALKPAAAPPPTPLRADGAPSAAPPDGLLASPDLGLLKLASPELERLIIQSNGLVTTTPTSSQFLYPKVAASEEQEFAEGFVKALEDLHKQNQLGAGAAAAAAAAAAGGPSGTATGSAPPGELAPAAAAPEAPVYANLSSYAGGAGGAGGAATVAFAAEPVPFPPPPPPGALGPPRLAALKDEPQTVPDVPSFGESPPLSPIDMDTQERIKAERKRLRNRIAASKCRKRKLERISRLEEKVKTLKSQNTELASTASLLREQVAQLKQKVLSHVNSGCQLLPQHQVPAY
UniProt Q96AT1: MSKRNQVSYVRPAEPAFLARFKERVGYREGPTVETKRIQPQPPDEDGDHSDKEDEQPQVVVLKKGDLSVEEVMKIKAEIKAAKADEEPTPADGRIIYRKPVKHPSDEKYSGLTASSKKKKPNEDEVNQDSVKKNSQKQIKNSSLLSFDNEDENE

What follows are targets tested with CC1=C2C(=CC=C1)N=C(N(C2=O)C3=CC=CC=C3C)CN4C=NC5=C(N=CN=C54)N (assay: log2 fold change, soluble protein after heating vs DMSO (PISA); higher = thermal stabilisation; K562 cells, 10 uM, 30 min; active = over 0.2 and 3.5 SD of the protein, either way, in both replicates (recomputed)).
In short: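 K562 cells (2×10^6 cells/mL) were treated with 10 μM compound for 30 min, and aliquots were heated for 3 min over 48°C-58°C. Pooled aliquots were extracted in PBS with 0.5% NP-40 at 4°C, and the supernatant after 21,000xg for 90 min was measured by TMTpro 16plex LC-MS/MS with channel sums equalised. Reported thermal stability, relative to control samples and from duplicates, is a log2 fold change.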
With KEAP1 (UniProt Q14145) the log2 fold change was inactive: 0.007.
For KPNA1 (UniProt P52294), the log2 fold change was inactive: 0.079.
In the case of KIFBP (UniProt Q96EK5), the log2 fold change is reported as inactive: 0.06.
For KLHDC8B (UniProt Q8IXV7), the log2 fold change was inactive: 0.093.
With KIF14 (UniProt Q15058) the log2 fold change was inactive: 0.117.
KHK isoform 2 (UniProt P50053) was tested, and the log2 fold change was inactive: 0.045.
With KNTC1 (UniProt P50748) the log2 fold change was inactive: 0.106.
In the case of JAG2 (UniProt Q9Y219), the log2 fold change is reported as inactive: 0.013.
In the case of JPT2 isoform 3 (UniProt Q9H910), the log2 fold change is reported as inactive: 0.008.
KIF5B (UniProt P33176) was tested, and the log2 fold change was inactive: 0.039.
KCTD15 (UniProt Q96SI1) was tested, and the log2 fold change was inactive: 0.056.
With KCNN4 (UniProt O15554) the log2 fold change was inactive: -0.102.
KPNA2 (UniProt P52292) was tested, and the log2 fold change was inactive: -0.124.
KCTD5 (UniProt Q9NXV2) was tested, and the log2 fold change was inactive: 0.065.
For KSR1 (UniProt Q8IVT5), the log2 fold change was inactive: 0.137.
In the case of KIDINS220 (UniProt Q9ULH0), the log2 fold change is reported as inactive: 0.041.
For KCT2 (UniProt Q8NC54), the log2 fold change was inactive: -0.01.
With KRIT1 (UniProt O00522) the log2 fold change was inactive: 0.162.
In the case of KCTD3 (UniProt Q9Y597), the log2 fold change is reported as inactive: 0.019.
With KIF13A (UniProt Q9H1H9) the log2 fold change was inactive: 0.054.
In the case of KDSR (UniProt Q06136), the log2 fold change is reported as inactive: 0.017.
With JUND (UniProt P17535) the log2 fold change was inactive: -0.023.
IWS1 (UniProt Q96ST2) was tested, and the log2 fold change was inactive: 0.037.
In the case of KIAA1143 (UniProt Q96AT1), the log2 fold change is reported as inactive: 0.016.
